Reference: PubChem BioAssay AID1508588 (Peter MacCallum Cancer Centre, 2020)
Test: 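Knock-downs boosting vemurafenib effects on melanoma cell growth or lactate release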 (primary screen). System: human WM266.4 melanoma cells (BRAF V600 mutant). Knock-down reagent: siRNA pool against human genes, 40 nM. Time to read-out: 96 h from transfection to read-out. Challenge: vemurafenib 300 nM (about IC25), added 48 h after transfection, for 48 h; comparison arm got DMSO vehicle only. Detection: 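Cell gain (DAPI nuclei at end minus before drug, mean of two replicates) and medium lactate by absorbance per cell, both as ratio to non-targeting siRNA, also grouped into fold-change classes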. Reading the numbers: cell gain with vemurafenib: higher = more cell gain than with non-targeting siRNA; lactate per cell with vemurafenib: higher = more lactate made per cell. Hit rule: 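Enhancement is called by pairing each knock-down's vehicle-arm and drug-arm fold-change classes for viability or glycolysis; which class combinations qualify is not given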. Calls: active = enhances vemurafenib effect; inactive = no enhancement seen.
The deposit covers about 18,000 reagents; shown is a random part of them. Of all reagents, 790 (4.4%) were called active. 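Calls rest on a combination of fold-change classes in drug and vehicle arms, not all shown here.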

| gene | PubChem SID | cell gain with vemurafenib | lactate per cell with vemurafenib | Outcome |
| --- | --- | --- | --- | --- |
| PLPPR4 | SID152155433 | 0.59 | 0.48 | active |
| NR1D2 | SID134309883 | 0.4 | 0.8 | inactive |
| PAPOLA | SID152155608 | 0.45 | 1.34 | inactive |
| PLA2G4F | SID135621917 | 0.86 | 1.25 | inactive |
| OR2Z1 | SID152156557 | 0.12 | 3.07 | inactive |
| SCIMP | SID134329480 | 0.31 | 1.53 | inactive |
| TRIM11 | SID134312198 | 0.51 | 1.08 | inactive |
| RSPH1 | SID134319329 | 0.82 | 0.76 | inactive |
| NMI | SID134310311 | 0.64 | 1.07 | inactive |
| RNASE11 | SID135623056 | 0.62 | 0.58 | inactive |
| OTUD7B | SID135621615 | 1.01 | 0.86 | inactive |
| TWNK | SID152148179 | 1.14 | 0.84 | inactive |
| GALNT18 | SID152151478 | 0.56 | 1.56 | inactive |
| CCDC68 | SID134318724 | 0.96 | 0.99 | inactive |
| SH3BP5L | SID134318755 | 0.67 | 1.41 | inactive |
| ABCB7 | SID134312353 | 0.27 | 0.64 | inactive |
| PPRC1 | SID152154201 | 0.49 | 0.55 | inactive |
| RCC1 | SID135625569 | 0.39 | 0.92 | inactive |
| RCC1 | SID152155207 | 0.77 | 0.77 | inactive |
| SCAMP4 | SID152147579 | 0.65 | 1.19 | inactive |
| RNF34 | SID134312195 | 0.32 | 0.8 | inactive |
| TARP | SID135625131 | 0.73 | 0.95 | inactive |
| NLRP7 | SID135623230 | 0.32 | 2.75 | inactive |
| VEGFD | SID152149585 | 0.47 | 1.66 | inactive |
| PLSCR4 | SID135624136 | 0.84 | 1.08 | inactive |
| ARHGAP36 | SID134313318 | 0.55 | 1.08 | inactive |
| H4C12 | SID135622127 | 1.29 | 0.94 | inactive |
| SLC66A3 | SID152153363 | 0.04 | 1.21 | inactive |
| LRRC7 | SID135622662 | 1.11 | 0.92 | inactive |
| METAP2 | SID152152787 | 0.25 | 0.66 | active |
| ITK | SID135620623 | 0.98 | 0.54 | inactive |
| MPL | SID134310154 | 0.58 | 0.66 | inactive |
| MORF4L2 | SID134311766 | 0.47 | 1.27 | inactive |
| ALKBH6 | SID135622866 | 0.77 | 0.64 | inactive |
| PROP1 | SID134323874 | 0.66 | 0.46 | inactive |
| UTS2 | SID152149226 | 0.65 | 1.07 | inactive |
| NPTXR | SID134316771 | 0.5 | 0.56 | inactive |
| USP6NL | SID152156506 | 0.39 | 0.82 | inactive |
| TMBIM6 | SID152149097 | 0.66 | 0.62 | inactive |
| FBXO10 | SID135624532 | 0.6 | 0.1 | inactive |
| TEX47 | SID134321033 | 0.73 | 0.64 | inactive |
| CTNNBL1 | SID134321468 | 0.81 | 0.88 | inactive |
| COPS5 | SID134311241 | 0.7 | 1.14 | inactive |
| SPRR3 | SID135623887 | 0.4 | 0.82 | inactive |
| ODAD3 | SID152155650 | 0.37 | 0.88 | inactive |
| ACSM3 | SID152147444 | 0.6 | 0.9 | inactive |
| GZF1 | SID134312176 | 0.66 | 0.98 | inactive |
| GNRH2 | SID134315637 | 0.58 | 1 | inactive |
| CDKN2AIP | SID152156517 | 0.68 | 0.72 | inactive |
| CHRNA9 | SID152152500 | 0.75 | 1.28 | inactive |
| TOPORS | SID134323793 | 1.04 | 0.64 | inactive |
| STAP2 | SID152152277 | 0.84 | 0.86 | inactive |
| ZCCHC12 | SID134322350 | 0.25 | 0.56 | inactive |
| DECR1 | SID135621813 | 0.75 | 0.64 | inactive |
| PROS1 | SID152155598 | 0.64 | 1.15 | inactive |
| TMEM254 | SID134322775 | 0.34 | 1.62 | inactive |
| IQSEC2 | SID135624469 | 0.93 | 0.8 | inactive |
| SLFN12 | SID135623460 | 0.83 | 0.76 | inactive |
| COL11A1 | SID135622159 | 0.26 | 1.31 | inactive |

8 entries from above, ordered by “cell gain with vemurafenib”, highest first.
| gene | PubChem SID | cell gain with vemurafenib | lactate per cell with vemurafenib | Outcome |
| --- | --- | --- | --- | --- |
| PLSCR4 | SID135624136 | 0.84 | 1.08 | inactive |
| RCC1 | SID152155207 | 0.77 | 0.77 | inactive |
| TARP | SID135625131 | 0.73 | 0.95 | inactive |
| SCAMP4 | SID152147579 | 0.65 | 1.19 | inactive |
| ARHGAP36 | SID134313318 | 0.55 | 1.08 | inactive |
| VEGFD | SID152149585 | 0.47 | 1.66 | inactive |
| RNF34 | SID134312195 | 0.32 | 0.8 | inactive |
| NLRP7 | SID135623230 | 0.32 | 2.75 | inactive |

Continued.
| gene | PubChem SID | cell gain with vemurafenib | lactate per cell with vemurafenib | Outcome |
| --- | --- | --- | --- | --- |
| ADAMTS4 | SID135620742 | 0.59 | 1.01 | inactive |
| ICAM2 | SID152146967 | 0.75 | 0.94 | inactive |
| DLL4 | SID134314992 | 0.93 | 0.7 | inactive |
| MTCP1 | SID152153497 | 0.23 | 1.62 | inactive |
| ZNF624 | SID134325590 | 0.8 | 0.94 | inactive |
| FBXL13 | SID152147781 | 0.69 | 0.97 | inactive |
| CEP250 | SID152151361 | -0.03 | 2.62 | inactive |
| RAP2C | SID134314704 | 0.4 | 1.47 | inactive |
| HSD17B8 | SID135621515 | 0.69 | 0.69 | inactive |
| GINS3 | SID134320229 | 0.65 | 0.82 | inactive |
| LTA4H | SID152156543 | 0.96 | 0.84 | inactive |
| SOHLH1 | SID135625296 | 1.11 | 0.88 | inactive |
| CNDP1 | SID152155238 | 0.4 | 2.15 | inactive |
| SART3 | SID152156404 | 0.77 | 0.85 | inactive |
| SURF4 | SID134315118 | 0.29 | 1.59 | inactive |
| PKDREJ | SID134311709 | 0.93 | 0.2 | inactive |
| APOA5 | SID135622427 | 0.99 | 1.38 | inactive |
| FKBP9 | SID152150569 | 0.84 | 0.6 | inactive |
| ACSL4 | SID134314119 | 0.84 | 0.43 | inactive |
| ACD | SID135622701 | 0.52 | 1.38 | inactive |
| SLC71A2 | SID152148744 | 0.72 | 0.5 | inactive |
| ZNF185 | SID135623765 | 1.08 | 0.4 | inactive |
| ZSWIM4 | SID152155211 | 0 | 0 | inactive |
| SCGB2A1 | SID135623785 | 0.82 | 0.73 | inactive |
| KLHL38 | SID135624523 | 0.75 | 0.66 | inactive |
| MXD4 | SID135621880 | 0.95 | 0.54 | inactive |
| CZIB | SID134329402 | 0.63 | 1.36 | inactive |
| CYP3A43 | SID135621737 | 0.29 | 1.86 | inactive |
| CEP120 | SID152152566 | 0.37 | 0.3 | active |
| ATG12 | SID152156665 | 0.61 | 0.62 | inactive |
| COL28A1 | SID135624514 | 0.69 | 0.68 | inactive |
| NXN | SID152147176 | 0.31 | 0.3 | inactive |
| ADAM20 | SID152151134 | 1.1 | 0.34 | inactive |
| ULK4 | SID152148607 | 0.52 | 0.68 | inactive |
| BNIP5 | SID152150435 | 0.48 | 0.8 | inactive |
| MYO3B | SID152152883 | 0.35 | 0.62 | inactive |
| ARRB2 | SID134312346 | 0.52 | 0.94 | inactive |
| CSNK1A1L | SID135620867 | 0.71 | 0.8 | inactive |
| ALS2CL | SID135623705 | 0.7 | 1.02 | inactive |
| SNX4 | SID134315851 | 0.58 | 1 | inactive |
| ZNF266 | SID134325014 | 0.54 | 0.9 | inactive |
| CALHM6 | SID135625338 | 0.59 | 0.78 | inactive |
| PLA2G4E | SID135621914 | 0.24 | 1.16 | inactive |
| FCRL4 | SID134315083 | 0.71 | 0.92 | inactive |
| RAB41 | SID152152303 | 0.46 | 0.43 | active |
| EIF2S2 | SID135622146 | 0.19 | 1.69 | inactive |
| LURAP1 | SID135625393 | 1.18 | 0.4 | inactive |
| LAMB1 | SID134316034 | 0.6 | 0.96 | inactive |
